Experimental data published in article PMC12485055.
Results are given in words; binding and its absence hold for the method and conditions named. Binding seen in cells or lysates may run through a third protein. Here binding means that the protein was enriched with, or labelled near, the bait; the list need not be complete.

The chains behind the UniProt entries cited, without tags or fusion partners.
UniProt Q01860: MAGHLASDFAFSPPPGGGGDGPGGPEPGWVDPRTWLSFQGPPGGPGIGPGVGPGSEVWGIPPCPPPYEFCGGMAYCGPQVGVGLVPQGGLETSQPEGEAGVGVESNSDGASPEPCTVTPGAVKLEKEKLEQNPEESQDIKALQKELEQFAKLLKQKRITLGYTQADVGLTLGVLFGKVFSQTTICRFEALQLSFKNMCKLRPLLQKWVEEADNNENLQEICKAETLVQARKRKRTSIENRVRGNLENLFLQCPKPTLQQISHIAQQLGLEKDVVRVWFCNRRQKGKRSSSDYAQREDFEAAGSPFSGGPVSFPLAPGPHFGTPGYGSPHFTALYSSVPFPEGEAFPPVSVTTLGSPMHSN
UniProt Q9Y5B9: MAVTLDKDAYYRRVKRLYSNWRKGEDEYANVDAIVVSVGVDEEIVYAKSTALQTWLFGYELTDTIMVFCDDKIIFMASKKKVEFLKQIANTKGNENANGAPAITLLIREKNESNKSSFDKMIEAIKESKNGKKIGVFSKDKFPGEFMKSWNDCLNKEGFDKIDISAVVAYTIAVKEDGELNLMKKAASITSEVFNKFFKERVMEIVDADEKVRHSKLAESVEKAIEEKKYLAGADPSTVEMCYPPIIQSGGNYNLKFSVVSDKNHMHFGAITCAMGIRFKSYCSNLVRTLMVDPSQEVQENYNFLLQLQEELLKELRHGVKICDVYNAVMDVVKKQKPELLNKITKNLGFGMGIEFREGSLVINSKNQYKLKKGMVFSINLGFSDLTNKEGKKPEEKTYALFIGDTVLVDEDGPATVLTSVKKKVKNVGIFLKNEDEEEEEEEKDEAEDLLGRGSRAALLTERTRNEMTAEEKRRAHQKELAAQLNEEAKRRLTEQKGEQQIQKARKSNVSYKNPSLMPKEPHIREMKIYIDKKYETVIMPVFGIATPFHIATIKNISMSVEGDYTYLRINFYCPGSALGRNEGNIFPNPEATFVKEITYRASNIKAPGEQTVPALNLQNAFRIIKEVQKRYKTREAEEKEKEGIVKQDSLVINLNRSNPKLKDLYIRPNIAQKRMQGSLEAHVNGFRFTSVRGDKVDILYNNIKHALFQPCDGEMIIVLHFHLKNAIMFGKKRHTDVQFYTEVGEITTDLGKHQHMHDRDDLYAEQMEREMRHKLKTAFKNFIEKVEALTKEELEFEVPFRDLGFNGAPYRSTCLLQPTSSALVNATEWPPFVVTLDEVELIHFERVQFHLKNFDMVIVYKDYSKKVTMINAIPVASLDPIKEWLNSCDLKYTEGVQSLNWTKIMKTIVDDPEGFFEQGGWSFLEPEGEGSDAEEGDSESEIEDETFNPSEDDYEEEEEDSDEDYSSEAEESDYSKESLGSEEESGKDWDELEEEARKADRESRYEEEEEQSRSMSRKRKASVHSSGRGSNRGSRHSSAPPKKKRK
UniProt P23760: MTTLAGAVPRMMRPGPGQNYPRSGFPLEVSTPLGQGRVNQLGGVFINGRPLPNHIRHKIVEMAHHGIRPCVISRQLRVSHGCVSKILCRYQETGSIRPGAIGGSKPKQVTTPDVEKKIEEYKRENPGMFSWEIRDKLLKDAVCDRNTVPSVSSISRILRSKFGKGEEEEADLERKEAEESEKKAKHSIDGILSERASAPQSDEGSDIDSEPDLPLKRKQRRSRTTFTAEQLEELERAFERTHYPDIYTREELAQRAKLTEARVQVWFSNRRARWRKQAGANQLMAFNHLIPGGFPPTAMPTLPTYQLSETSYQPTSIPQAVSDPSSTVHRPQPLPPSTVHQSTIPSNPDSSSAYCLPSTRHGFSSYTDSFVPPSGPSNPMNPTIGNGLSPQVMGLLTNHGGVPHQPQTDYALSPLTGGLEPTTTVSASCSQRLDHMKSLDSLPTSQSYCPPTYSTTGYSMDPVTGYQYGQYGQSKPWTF
UniProt Q13185: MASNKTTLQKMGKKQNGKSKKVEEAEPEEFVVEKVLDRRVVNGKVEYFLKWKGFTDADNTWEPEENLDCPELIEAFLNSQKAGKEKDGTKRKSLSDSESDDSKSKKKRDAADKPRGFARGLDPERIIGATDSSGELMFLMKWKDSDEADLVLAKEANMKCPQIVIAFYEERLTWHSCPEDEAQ
UniProt Q01196: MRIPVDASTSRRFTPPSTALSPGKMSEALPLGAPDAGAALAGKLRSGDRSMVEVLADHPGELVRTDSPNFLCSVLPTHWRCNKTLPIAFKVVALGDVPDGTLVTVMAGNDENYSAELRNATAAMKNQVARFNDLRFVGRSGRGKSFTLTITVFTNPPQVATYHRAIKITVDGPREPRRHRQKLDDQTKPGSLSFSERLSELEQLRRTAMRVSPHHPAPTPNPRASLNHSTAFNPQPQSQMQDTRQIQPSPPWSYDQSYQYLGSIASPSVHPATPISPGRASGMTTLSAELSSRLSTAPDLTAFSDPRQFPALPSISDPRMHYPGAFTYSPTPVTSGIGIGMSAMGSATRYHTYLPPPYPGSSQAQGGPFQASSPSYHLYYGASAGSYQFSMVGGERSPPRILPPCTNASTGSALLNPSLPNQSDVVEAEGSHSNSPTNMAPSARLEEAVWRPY
UniProt P23769: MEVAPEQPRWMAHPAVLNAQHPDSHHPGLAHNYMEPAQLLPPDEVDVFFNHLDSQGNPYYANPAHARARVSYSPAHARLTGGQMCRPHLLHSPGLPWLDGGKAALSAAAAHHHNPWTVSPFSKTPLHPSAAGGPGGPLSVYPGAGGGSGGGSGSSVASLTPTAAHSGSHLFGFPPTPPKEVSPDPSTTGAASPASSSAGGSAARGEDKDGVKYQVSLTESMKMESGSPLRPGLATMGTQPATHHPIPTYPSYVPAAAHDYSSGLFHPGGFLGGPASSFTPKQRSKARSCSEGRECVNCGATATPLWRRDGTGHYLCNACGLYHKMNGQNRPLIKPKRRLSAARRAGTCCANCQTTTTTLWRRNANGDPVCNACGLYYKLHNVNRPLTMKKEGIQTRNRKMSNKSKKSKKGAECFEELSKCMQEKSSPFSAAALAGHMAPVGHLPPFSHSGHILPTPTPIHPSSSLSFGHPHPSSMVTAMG

B1: L1TD1 (protein, UniProt Q5T7N2 1-865)
chain: MSDVSTSVQSKFARLAKKKENITYMKREQLTETDKDIAPVLDLKCKDVSAIMNKFKVLMEIQDLMFEEMRETLKNDLKAVLGGKATIPEVKNSENSSSRTEFQQIINLALQKTGMVGKIEGENSKIGDDNENLTFKLEVNELSGKLDNTNEYNSNDGKKLPQGESRSYEVMGSMEETLCNIDDRDGNRNVHLEFTERESRKDGEDEFVKEMREERKFQKLKNKEEVLKASREEKVLMDEGAVLTLVADLSSATLDISKQWSNVFNILRENDFEPKFLCEVKLAFKCDGEIKTFSDLQSLRKFASQKSSVKELLKDVLPQKEEINQGGRKYGIQEKRDKTLIDSKHRAGEITSDGLSFLFLKEVKVAKPEEMKNLETQEEEFSELEELDEEASGMEDDEDTSGLEEEEEEPSGLEEEEEEEASGLEEDEASGLEEEEEQTSEQDSTFQGHTLVDAKHEVEITSDGMETTFIDSVEDSESEEEEEGKSSETGKVKTTSLTEKKASRRQKEIPFSYLVGDSGKKKLVKHQVVHKTQEEEETAVPTSQGTGTPCLTLCLASPSKSLEMSHDEHKKHSHTNLSISTGVTKLKKTEEKKHRTLHTEELTSKEADLTEETEENLRSSVINSIREIKEEIGNLKSSHSGVLEIENSVDDLSSRMDILEERIDSLEDQIEEFSKDTMQMTKQIISKERQRDIEERSRSCNIRLIGIPEKESYENRAEDIIKEIIDENFAELKKGSSLEIVSACRVPSKIDEKRLTPRHILVKFWNSSDKEKIIRASRERREITYQGTRIRLTADLSLDTLDARSKWSNVFKVLLEKGFNPRILYPAKMAFDFRGKTKVFLSIEEFRDYVLHMPTLRELLGNNIP
B2: LIN28A (protein, UniProt Q9H9Z2 1-209)
chain: MGSVSNQQFAGGCAKAAEEAPEEAPEDAARAADEPQLLHGAGICKWFNVRMGFGFLSMTARAGVALDPPVDVFVHQSKLHMEGFRSLKEGEAVEFTFKKSAKGLESIRVTGPGGVFCIGSERRPKGKSMQKRRSKGDRCYNCGGLDHHAKECKLPPQPKKCHFCQSISHMVASCPLKAQQGPSAQGKPTYFREEEEEIHSPTLLPEAQN
B3: HELLS (protein, UniProt Q9NRZ9 1-838)
chain: MPAERPAGSGGSEAPAMVEQLDTAVITPAMLEEEEQLEAAGLERERKMLEKARMSWDRESTEIRYRRLQHLLEKSNIYSKFLLTKMEQQQLEEQKKKEKLERKKESLKVKKGKNSIDASEEKPVMRKKRGREDESYNISEVMSKEEILSVAKKNKKENEDENSSSTNLCVEDLQKNKDSNSIIKDRLSETVRQNTKFFFDPVRKCNGQPVPFQQPKHFTGGVMRWYQVEGMEWLRMLWENGINGILADEMGLGKTVQCIATIALMIQRGVPGPFLVCGPLSTLPNWMAEFKRFTPDIPTMLYHGTQEERQKLVRNIYKRKGTLQIHPVVITSFEIAMRDRNALQHCYWKYLIVDEGHRIKNMKCRLIRELKRFNADNKLLLTGTPLQNNLSELWSLLNFLLPDVFDDLKSFESWFDITSLSETAEDIIAKEREQNVLHMLHQILTPFLLRRLKSDVALEVPPKREVVVYAPLSKKQEIFYTAIVNRTIANMFGSSEKETIELSPTGRPKRRTRKSINYSKIDDFPNELEKLISQIQPEVDRERAVVEVNIPVESEVNLKLQNIMMLLRKCCNHPYLIEYPIDPVTQEFKIDEELVTNSGKFLILDRMLPELKKRGHKVLLFSQMTSMLDILMDYCHLRDFNFSRLDGSMSYSEREKNMHSFNTDPEVFIFLVSTRAGGLGINLTAADTVIIYDSDWNPQSDLQAQDRCHRIGQTKPVVVYRLVTANTIDQKIVERAAAKRKLEKLIIHKNHFKGGQSGLNLSKNFLDPKELMELLKSRDYEREIKGSREKVISDKDLELLLDRSDLIDQMNASGPIKEKMGIFKILENSEDSSPECLF

Columns and labels:
[1] = target: OCT4 in hESCs (human (endogenous in hESCs)) (UniProt Q01860); test: affinity purification with mass spectrometry; ChIP-SICAP: anti-OCT4 antibody (ab19857) on Protein G beads, DSG + formaldehyde cross-linked sonicated chromatin of hESCs; DNA biotinylated, streptavidin capture, LC-MS/MS, label-free; filtered against rabbit IgG in hESCs
[2] = target: OCT4 wild type (human) (UniProt Q01860); test: affinity purification with mass spectrometry; ChIP-SICAP: anti-OCT4 antibody (ab19857) on Protein G beads, DSG + formaldehyde cross-linked sonicated chromatin of human fibroblasts dox-induced 48 h with OSKM (OCT4 WT or mutant); DNA biotinylated, streptavidin capture, LC-MS/MS, label-free; filtered against the OCT4 antibody in uninfected hFibs

Molecule	binding [1]	binding [2]
SUPT16H (from UniProt Q9Y5B9 1-1047)	binds	binds
PAX3 (from UniProt P23760 1-479)	–	binds
CBX3 (from UniProt Q13185 1-183)	binds	binds
RUNX1 (from UniProt Q01196 1-453)	–	binds
GATA2 (from UniProt P23769 1-480)	–	binds
B1	binds	–
B2	binds	–
B3	binds	–
